According to article PMC13529201:
These are yes or no findings as the source states them, for the method shown. Binding seen in cells or lysates may run through a third protein. Binding can be weak; no strength is given. Tags and fused reporters may be left off the sequences shown.

Molecular target: T1, Flag-ABCF2 (pCAGGS-N-flag-ABCF2-P) (UniProt Q9UG63)
T1 sequence: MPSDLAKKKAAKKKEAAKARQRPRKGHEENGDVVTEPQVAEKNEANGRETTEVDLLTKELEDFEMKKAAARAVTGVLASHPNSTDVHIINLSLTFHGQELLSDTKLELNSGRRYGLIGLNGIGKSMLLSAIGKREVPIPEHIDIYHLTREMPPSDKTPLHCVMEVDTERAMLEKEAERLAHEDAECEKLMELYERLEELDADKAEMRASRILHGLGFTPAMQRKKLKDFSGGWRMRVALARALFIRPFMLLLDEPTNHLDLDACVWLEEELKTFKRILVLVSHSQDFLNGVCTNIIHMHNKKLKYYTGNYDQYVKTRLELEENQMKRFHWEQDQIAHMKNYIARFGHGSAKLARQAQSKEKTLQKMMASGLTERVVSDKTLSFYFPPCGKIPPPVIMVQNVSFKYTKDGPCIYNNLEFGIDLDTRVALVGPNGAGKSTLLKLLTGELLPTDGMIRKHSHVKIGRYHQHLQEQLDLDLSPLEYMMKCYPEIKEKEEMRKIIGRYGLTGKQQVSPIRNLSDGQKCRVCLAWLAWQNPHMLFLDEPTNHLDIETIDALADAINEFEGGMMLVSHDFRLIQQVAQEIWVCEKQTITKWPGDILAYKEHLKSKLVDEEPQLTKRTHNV
Assay: co-IP; lysate (2 mg) of HEK293T cells transfected with pCAGGS-N-flag-ABCF2-P incubated with His-tagged PlpE or mutant proteins (2.5 ug) 2 h at 4 C; anti-[…] antibody on protein A/G beads overnight at 4 C; eluted with 3x Flag peptide; blots with anti-[…] and anti-His; only the binder purified

In the case of “His-tagged Pasteurella lipoprotein E (PlpE) of P. multocida”, the binding is reported as “binds”.
